Experimental data taken from paper PMC6448818, “A novel evolutionary conserved mechanism of RNA stability regulates synexpression of primordial germ cell-specific genes prior to the sex-determination stage in medaka”.

Columns and labels:
[1] = molecular target: T1, Ol-bsf (Ol-lrpprc, Bicoid Stability Factor) (Oryzias latipes) (UniProt H2LIH1); assay: EMSA; settings: labelled fly probe; EMSA: 10 mM Tris-HCl pH 7.9, 100 mM KCl, 10% glycerol, 5 mM MgCl2, 1 ug torula rRNA, 0.075% Triton X-100, 1 mM DTT, 1 ug BSA, 0.5 ng probe, 2 or 4 uL IVT mix in 20 uL; protein translated in vitro; protein details: FLAG; label: 5'-32P when probe, unlabelled when competitor
T1 sequence (looked up, limits assumed): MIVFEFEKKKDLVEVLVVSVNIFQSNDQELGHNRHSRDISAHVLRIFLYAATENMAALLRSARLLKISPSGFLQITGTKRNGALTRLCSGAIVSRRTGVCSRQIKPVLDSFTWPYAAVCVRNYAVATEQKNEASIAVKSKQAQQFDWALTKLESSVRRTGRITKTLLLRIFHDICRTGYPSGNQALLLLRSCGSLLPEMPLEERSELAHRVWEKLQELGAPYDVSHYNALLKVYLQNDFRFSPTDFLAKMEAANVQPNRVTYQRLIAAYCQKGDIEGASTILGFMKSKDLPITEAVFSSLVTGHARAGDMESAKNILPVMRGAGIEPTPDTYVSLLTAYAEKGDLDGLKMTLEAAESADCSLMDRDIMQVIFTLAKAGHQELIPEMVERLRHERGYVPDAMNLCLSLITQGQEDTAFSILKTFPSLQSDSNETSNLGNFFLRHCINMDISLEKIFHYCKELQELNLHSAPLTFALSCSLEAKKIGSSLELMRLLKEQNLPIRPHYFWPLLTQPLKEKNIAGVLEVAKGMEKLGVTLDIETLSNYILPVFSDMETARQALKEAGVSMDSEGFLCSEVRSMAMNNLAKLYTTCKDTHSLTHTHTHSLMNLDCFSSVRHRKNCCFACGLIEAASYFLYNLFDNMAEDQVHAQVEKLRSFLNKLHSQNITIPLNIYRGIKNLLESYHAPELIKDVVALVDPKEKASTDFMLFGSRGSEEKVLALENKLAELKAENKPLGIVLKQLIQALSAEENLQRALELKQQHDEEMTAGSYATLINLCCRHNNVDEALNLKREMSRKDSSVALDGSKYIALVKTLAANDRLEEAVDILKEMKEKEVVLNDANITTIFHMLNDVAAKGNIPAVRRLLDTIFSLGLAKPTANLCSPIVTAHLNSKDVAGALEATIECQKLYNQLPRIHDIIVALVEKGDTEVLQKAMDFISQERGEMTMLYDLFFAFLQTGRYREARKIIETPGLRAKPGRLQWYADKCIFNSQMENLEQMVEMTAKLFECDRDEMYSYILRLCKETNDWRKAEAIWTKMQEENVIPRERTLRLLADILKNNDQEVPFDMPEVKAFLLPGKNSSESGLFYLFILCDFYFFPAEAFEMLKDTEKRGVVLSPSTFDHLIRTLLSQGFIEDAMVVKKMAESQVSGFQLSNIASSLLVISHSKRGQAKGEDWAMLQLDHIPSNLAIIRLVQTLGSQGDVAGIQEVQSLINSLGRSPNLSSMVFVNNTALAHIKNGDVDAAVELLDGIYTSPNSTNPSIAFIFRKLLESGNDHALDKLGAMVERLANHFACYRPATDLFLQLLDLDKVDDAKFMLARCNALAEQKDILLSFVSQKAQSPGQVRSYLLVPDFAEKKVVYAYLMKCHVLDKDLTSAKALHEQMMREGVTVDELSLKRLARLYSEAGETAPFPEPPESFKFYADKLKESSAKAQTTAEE

[2] = tested on: Ol-cug-bp2 (Oryzias latipes); assay: EMSA; settings: no convincing evidence for specific binding; EMSA: 10 mM Tris-HCl pH 7.9, 100 mM KCl, 10% glycerol, 5 mM MgCl2, 1 ug torula rRNA, 0.075% Triton X-100, 1 mM DTT, 1 ug BSA, 0.5 ng probe, 2 or 4 uL IVT mix in 20 uL; protein translated in vitro; label: 5'-32P when probe, unlabelled when competitor
[3] = tested on: Ol-cug-bp1 (Oryzias latipes); assay: EMSA; settings: self-competition 1/1 to 1/5 gave progressive loss of shift; EMSA: 10 mM Tris-HCl pH 7.9, 100 mM KCl, 10% glycerol, 5 mM MgCl2, 1 ug torula rRNA, 0.075% Triton X-100, 1 mM DTT, 1 ug BSA, 0.5 ng probe, 2 or 4 uL IVT mix in 20 uL; protein translated in vitro; protein details: FLAG; label: 5'-32P when probe, unlabelled when competitor
[4] = tested on: Ol-cug-bp1 (Oryzias latipes); assay: competition with a labelled probe; settings: vs labelled D3U-box, EMSA: 10 mM Tris-HCl pH 7.9, 100 mM KCl, 10% glycerol, 5 mM MgCl2, 1 ug torula rRNA, 0.075% Triton X-100, 1 mM DTT, 1 ug BSA, 0.5 ng probe, 2 or 4 uL IVT mix in 20 uL, protein translated in vitro, protein details: FLAG, label: unlabelled competitor

## UGGUUCACGUCUGCUGCAGCUCUCUGACUCU
[1]
  binding result: binds

## UGGUUCACGUCUGCUGCAGGUCUCUGACUCU [native medaka D3U-box]
[2]
  binding result: no binding
[3]
  binding result: binds

## UGGUUCACGUUCUUCAAGACGCUCUGACUCU [D3U-scrambled box (S-D3U-box)]
[4]; 1/1 to 1/10
  binding result: no binding

## UGGUUCACGUUCUUCACAGGUCUCUGACUCU [D3U-minus CUG box (CUGminus-D3U-box)]
[4]; 1/1 to 1/5
  binding result: no binding

For at least one entry, the source does not settle the construct or the ends of the probe. For some assays here: Negatives hold for the conditions tested. For some assays here: Where a protein sequence is shown, tags need not be part of it.
